Reference: article PMC9123247 (Drug Design, Development and Therapy, 2022)

Tested on: A549 lung cancer cell line
Test: MTT anti-proliferative assay, lung cancer cell line A549
Format: cell-based
Conditions: Homo sapiens, A549, read-out: IC50 (µM) A549

In the case of `CN[C@@H]1C[C@H]2O[C@@](C)([C@@H]1OC)n1c3ccccc3c3c4c(c5c6ccccc6n2c5c31)C(=O)NC4` [Staurosporine], the IC50 is reported as 4.29 ± 0.72 µM.
